Assay results taken from the supplement of paper PMC8728848.
The list shows a part of the results.

How the values were obtained:
Experiment in all cases: glycan array binding signal (z-score within array); higher = stronger binding
Conditions in all cases: glycan notation: IUPAC condensed, linker removed
[1] = target: Neu5Ac(a2-6)GlcNAc(b1-4)GlcNAc(b1-4)GlcNAc
Summary of the method: (§1)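 Glycan array binding is given as a within-array Z-score, which can be read as non-binding when negative. The arrays, 3228 of them, came from the Consortium for Functional Glycomics database and were retained only where the protein sequence was available. Z-scores were averaged across arrays of the same protein sequence at different concentrations or buffers and across linkers.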

Neu5Ac(a2-8)Neu5Ac = target: Neu5Ac(a2-8)Neu5Ac
Summary of the method: as §1

[2] = target: Neu5Ac(a2-8)Neu5Ac(a2-3)Gal(b1-3)GalNAc(b1-4)[Neu5Ac(a2-3)]Gal(b1-4)Glc
Summary of the method: as §1

[3] = target: Neu5Ac(a2-8)Neu5Ac(a2-3)Gal(b1-3)GalNAc(b1-4)[Neu5Ac(a2-8)Neu5Ac(a2-3)]Gal(b1-4)Glc
Summary of the method: as §1

[4] = target: Neu5Ac(a2-8)Neu5Ac(a2-3)Gal(b1-4)Glc
Summary of the method: as §1

[5] = target: Neu5Ac(a2-8)Neu5Ac(a2-3)Gal(b1-4)GlcNAc
Summary of the method: as §1

[6] = target: Neu5Ac(a2-8)Neu5Ac(a2-3)[Gal(b1-3)GalNAc(b1-4)]Gal(b1-4)Glc
Summary of the method: as §1

[7] = target: Neu5Ac(a2-8)Neu5Ac(a2-3)[GalNAc(b1-4)]Gal(b1-4)Glc
Summary of the method: as §1

[8] = target: Neu5Ac(a2-8)Neu5Ac(a2-8)Neu5Ac
Summary of the method: as §1

[9] = target: Neu5Ac(a2-8)Neu5Ac(a2-8)Neu5Ac(a2-3)Gal(b1-4)Glc
Summary of the method: as §1

[10] = target: Neu5Ac(a2-8)Neu5Ac(a2-8)Neu5Ac(a2-3)[Gal(b1-3)GalNAc(b1-4)]Gal(b1-4)Glc
Summary of the method: as §1

[11] = target: Neu5Ac(a2-8)Neu5Ac(a2-8)Neu5Ac(a2-3)[GalNAc(b1-4)]Gal(b1-4)Glc
Summary of the method: as §1

[12] = target: Neu5Ac(a2-8)Neu5Ac(a2-8)Neu5Ac(a2-8)Neu5Ac(a2-3)[GalNAc(b1-4)]Gal(b1-4)Glc
Summary of the method: as §1

[13] = target: Neu5Ac(a2-8)Neu5Gc(a2-3)Gal(b1-4)GlcNAc
Summary of the method: as §1

[14] = target: Neu5Ac(b2-6)Gal(b1-4)GlcNAc
Summary of the method: as §1

Neu5Ac(b2-6)GalNAc = target: Neu5Ac(b2-6)GalNAc
Summary of the method: as §1

[15] = target: Neu5Ac9Ac(a2-3)Gal(b1-3)GlcNAc
Summary of the method: as §1

[16] = target: Neu5Ac9Ac(a2-3)Gal(b1-4)GlcNAc
Summary of the method: as §1

[17] = target: Neu5Ac9Ac(a2-6)Gal(b1-4)GlcNAc
Summary of the method: as §1

[18] = target: Neu5Gc(a2-3)Gal(b1-3)GlcNAc
Summary of the method: as §1

[19] = target: Neu5Gc(a2-3)Gal(b1-3)[Fuc(a1-4)]GlcNAc
Summary of the method: as §1

Neu5Gc(a2-3)Gal(b1-4)Glc = target: Neu5Gc(a2-3)Gal(b1-4)Glc
Summary of the method: as §1

[20] = target: Neu5Gc(a2-3)Gal(b1-4)GlcNAc
Summary of the method: as §1

[21] = target: Neu5Gc(a2-3)Gal(b1-4)GlcNAc(b1-3)Gal(b1-4)GlcNAc(b1-2)Man(a1-3)[Neu5Gc(a2-3)Gal(b1-4)GlcNAc(b1-3)Gal(b1-4)GlcNAc(b1-2)Man(a1-6)]Man(b1-4)GlcNAc(b1-4)GlcNAc
Summary of the method: as §1

[22] = target: Neu5Gc(a2-3)Gal(b1-4)[Fuc(a1-3)]GlcNAc
Summary of the method: as §1

[23] = target: Neu5Gc(a2-6)Gal(b1-4)GlcNAc
Summary of the method: as §1

Neu5Gc(a2-6)GalNAc = target: Neu5Gc(a2-6)GalNAc
Summary of the method: as §1

[24] = target: Neu5Gc(a2-8)Neu5Ac(a2-3)Gal(b1-4)GlcNAc
Summary of the method: as §1

[25] = target: Neu5Gc(a2-8)Neu5Gc(a2-3)Gal(b1-4)GlcNAc
Summary of the method: as §1

[26] = target: Neu5Gc(a2-8)Neu5Gc(a2-3)Gal(b1-4)GlcNAc(b1-3)Gal(b1-4)GlcNAc
Summary of the method: as §1

[27] = target: Neu5Gc(a2-8)Neu5Gc(a2-6)Gal(b1-4)GlcNAc
Summary of the method: as §1

[28] = target: Neu5Gc(b2-6)Gal(b1-4)GlcNAc
Summary of the method: as §1

B1: truncCC1G-10077 (Coprinopsis cinerea) (protein)
chain: MHHHHHHHHPLPSPGPGWVLIQNGGTGKFLCSTPSGDIGTADGPETVYDYSVQWRFIQREYTGVYHVVNRATGAYLRQIGTSMPSIGLAEENDDELKDWWMLETYDNSEIGLASIISRWTGNVLDHYGGVSVQALDNNTENSYRSWAIIPARDWLTSFSLVNGQGGLCLAAQYAREETRLSTTANVNDFHAQWVFRKPSGSSGYTIQNKYNNHYVGGTSARWELVVCCNKYFGIRNTSTQKYLAIEDGQVTFQDQDMTDRKQCWELCSGRATDTSGNDYDLIYMDDDLLEVMIPWVGDKQGDLKHYIEKRATKKPPKDKGGWQLPAAGLIKKPKFNDIRQLLQELIEQWEWDVVNEEREQIQTLVSIDEAEARRLLGRRPHPDIVAAYQRSRSSTLFRIDRQGYFNIAGDRYVNIQGQYGDDSYFHIALPVGVRFGREQIRRFLRDSLDRSTSVTITPTTCKPPSGGPDYNRDPDSDGDNSWIKWTIAVVGTSAIKHSEL
- glycan array binding signal (z-score) [1]: -0.952
- glycan array binding signal (z-score) (Neu5Ac(a2-8)Neu5Ac): 0.18
- glycan array binding signal (z-score) [2]: -0.511
- glycan array binding signal (z-score) [3]: -0.706
- glycan array binding signal (z-score) [4]: -1.11
- glycan array binding signal (z-score) [5]: -0.969
- glycan array binding signal (z-score) [6]: -0.04
- glycan array binding signal (z-score) [7]: -0.475
- glycan array binding signal (z-score) [8]: 0.124
- glycan array binding signal (z-score) [9]: 0.249
- glycan array binding signal (z-score) [10]: -0.92
- glycan array binding signal (z-score) [11]: -0.016
- glycan array binding signal (z-score) [12]: -0.02
- glycan array binding signal (z-score) [13]: -1.09
- glycan array binding signal (z-score) [14]: -1.25
- glycan array binding signal (z-score) (Neu5Ac(b2-6)GalNAc): -1
- glycan array binding signal (z-score) [15]: -1.02
- glycan array binding signal (z-score) [16]: -0.932
- glycan array binding signal (z-score) [17]: -0.867
- glycan array binding signal (z-score) [18]: -0.698
- glycan array binding signal (z-score) [19]: -0.171
- glycan array binding signal (z-score) (Neu5Gc(a2-3)Gal(b1-4)Glc): 0.376
- glycan array binding signal (z-score) [20]: -0.789
- glycan array binding signal (z-score) [21]: 1.32
- glycan array binding signal (z-score) [22]: 3.02
- glycan array binding signal (z-score) [23]: -0.533
- glycan array binding signal (z-score) (Neu5Gc(a2-6)GalNAc): -0.873
- glycan array binding signal (z-score) [24]: -0.55
- glycan array binding signal (z-score) [25]: -0.276
- glycan array binding signal (z-score) [26]: -0.377
- glycan array binding signal (z-score) [27]: -0.247
- glycan array binding signal (z-score) [28]: 1.45
